Laboratory results from patent US20160279215A1, “NOVEL PEPTIDES AND COMBINATION OF PEPTIDES FOR USE IN IMMUNOTHERAPY AGAINST VARIOUS TUMORS” (immatics biotechnologies GmbH, priority 2015, published 2016).
For some of these results: Expression values are those of the mRNA of the gene that encodes the peptide; a gene is named only where it was looked up.

Key:
Set-up in all cases: species or system human
[1] = Absolute quantitation of TUMAP copies per cell in tumor samples by nanoLC-MS/MS; conditions: absolute peptide quantitation in tumor samples; median over samples
[2] = Identification and label-free relative LC-MS quantitation of HLA-presented peptides on tumor and normal tissue samples (XPRESIDENT presentation profiles); conditions: for Entities of particular interest: entities where the peptide was over-presented on cancer samples compared to normal tissues; for Additional entities of particular interest (presentation of selected peptides across entities): tumor entities on which the HLA-presented peptide was found, entity abbreviations defined in the title of Table 4B
[3] = system: source genes of the peptides (mRNA) in tumor and normal tissue; experiment: Expression profiling of source genes by RNAseq (target coverage); conditions: share of tumors with more than 1.5-fold over-expression vs highest-expressing relevant normal tissue; for Target coverage for source genes, AML (%): acute myeloid leukemia; for Target coverage for source genes, BRCA (%): breast cancer; for Target coverage for source genes, CLL (%): chronic leukemia (CLL); for Target coverage for source genes, OSCAR (%): esophageal cancer incl. gastric-oesophageal junction; for Target coverage for source genes, GBC_CCC (%): gallbladder adenocarcinoma and cholangiocarcinoma; for Target coverage for source genes, MEL (%): melanoma; for Target coverage for source genes, NHL (%): non-Hodgkin lymphoma; for Target coverage for source genes, OC (%): ovarian cancer; for Target coverage for source genes, SCLC (%): small cell lung cancer; for Target coverage for source genes, UBC (%): urinary bladder cancer; for Target coverage for source genes, UTC (%): uterine cancer
[4] = system: source genes of the peptides (mRNA) in tumor and normal tissue; experiment: Expression profiling of source genes by Affymetrix microarrays (target coverage); conditions: over-expression = more than 1.5-fold higher expression on tumor vs. normal tissue with highest expression, gene with minimal coverage decisive; for Target coverage for source genes of selected peptides, BPHI/PCA (%): BPHI/PCA (prostate cancer) samples; for Target coverage for source genes of selected peptides, CRC (%): CRC tumor samples; for Target coverage for source genes of selected peptides, GB (%): GB tumor samples; for Target coverage for source genes of selected peptides, GC (%): GC tumor samples; for Target coverage for source genes of selected peptides, HCC (%): HCC tumor samples; for Target coverage for source genes of selected peptides, NSCLC (%): NSCLC tumor samples; for Target coverage for source genes of selected peptides, PC (%): PC tumor samples; for Target coverage for source genes of selected peptides, RCC (%): RCC tumor samples

11 (LLDPKTIFL; listed as Homo sapiens) [compound 11]
Copies per cell (median) [1]: + (<100 = +) | Entities of particular interest [2]: NSCLC, HCC, RCC, CRC | Additional entities of particular interest (presentation of selected peptides across entities) [2]: GBC_CCC

14: peptide found in MMP1 (gene looked up) (YTFSGDVQL; listed as Homo sapiens) [compound 14]
Copies per cell (median) [1]: ++ (>=100 = ++) | Target coverage for source genes, AML (%) [3]: I (<19% over-expression = I) | Target coverage for source genes, BRCA (%) [3]: I (<19% over-expression = I) | Target coverage for source genes, CLL (%) [3]: I (<19% over-expression = I) | Target coverage for source genes, OSCAR (%) [3]: IV (>70% = IV) | Target coverage for source genes, GBC_CCC (%) [3]: I (<19% over-expression = I) | Target coverage for source genes, MEL (%) [3]: II (20-49% = II) | Target coverage for source genes, NHL (%) [3]: I (<19% over-expression = I) | Target coverage for source genes, OC (%) [3]: I (<19% over-expression = I) | Target coverage for source genes, SCLC (%) [3]: I (<19% over-expression = I) | Target coverage for source genes, UBC (%) [3]: III (50-69% = III) | Target coverage for source genes, UTC (%) [3]: I (<19% over-expression = I) | Entities of particular interest [2]: GC, NSCLC, CRC, PC, OSCAR | Additional entities of particular interest (presentation of selected peptides across entities) [2]: SCLC, UBC, UTC, GBC_CCC, MEL

21 (YLMDDFSSL; listed as Homo sapiens) [compound 21]
Copies per cell (median) [1]: + (<100 = +) | Entities of particular interest [2]: PC, NSCLC | Additional entities of particular interest (presentation of selected peptides across entities) [2]: OSCAR, OC, SCLC, UBC, BRCA, GBC_CCC, MEL, AML, NHL

24: peptide found in MMP13 (gene looked up) (KVWSDVTPL; listed as Homo sapiens) [compound 24]
Copies per cell (median) [1]: + (<100 = +) | Target coverage for source genes, AML (%) [3]: I (<19% over-expression = I) | Target coverage for source genes, BRCA (%) [3]: IV (>70% = IV) | Target coverage for source genes, CLL (%) [3]: I (<19% over-expression = I) | Target coverage for source genes, OSCAR (%) [3]: IV (>70% = IV) | Target coverage for source genes, GBC_CCC (%) [3]: IV (>70% = IV) | Target coverage for source genes, MEL (%) [3]: II (20-49% = II) | Target coverage for source genes, NHL (%) [3]: I (<19% over-expression = I) | Target coverage for source genes, SCLC (%) [3]: II (20-49% = II) | Target coverage for source genes, UBC (%) [3]: IV (>70% = IV) | Target coverage for source genes, UTC (%) [3]: IV (>70% = IV) | Entities of particular interest [2]: PC, NSCLC | Additional entities of particular interest (presentation of selected peptides across entities) [2]: BRCA

85 (KLLDKPEQFL; listed as Homo sapiens) [compound 85]
Copies per cell (median) [1]: + (<100 = +) | Entities of particular interest [2]: NSCLC, OC, MEL, CRC | Additional entities of particular interest (presentation of selected peptides across entities) [2]: NHL

89 (SLAETIFIV; listed as Homo sapiens) [compound 89]
Copies per cell (median) [1]: +++ (>=1,000 +++) | Entities of particular interest [2]: GC, NSCLC, OC | Additional entities of particular interest (presentation of selected peptides across entities) [2]: SCLC, GBC_CCC, RCC, NHL

117 (TLLEGISRA; listed as Homo sapiens) [compound 117]
Copies per cell (median) [1]: + (<100 = +) | Entities of particular interest [2]: NSCLC, OC | Additional entities of particular interest (presentation of selected peptides across entities) [2]: BRCA

155: peptide found in CYP4Z1 (gene looked up) (TLDSYLKAV; listed as Homo sapiens) [compound 155]
Copies per cell (median) [1]: ++ (>=100 = ++) | Target coverage for source genes, AML (%) [3]: I (<19% over-expression = I) | Target coverage for source genes, BRCA (%) [3]: III (50-69% = III) | Target coverage for source genes, CLL (%) [3]: I (<19% over-expression = I) | Target coverage for source genes, OSCAR (%) [3]: I (<19% over-expression = I) | Target coverage for source genes, GBC_CCC (%) [3]: I (<19% over-expression = I) | Target coverage for source genes, MEL (%) [3]: I (<19% over-expression = I) | Target coverage for source genes, NHL (%) [3]: I (<19% over-expression = I) | Target coverage for source genes, OC (%) [3]: I (<19% over-expression = I) | Target coverage for source genes, SCLC (%) [3]: I (<19% over-expression = I) | Target coverage for source genes, UBC (%) [3]: I (<19% over-expression = I) | Target coverage for source genes, UTC (%) [3]: I (<19% over-expression = I) | Additional entities of particular interest (presentation of selected peptides across entities) [2]: OC, BRCA

157 (ILQDGQFLV; listed as Homo sapiens) [compound 157]
Copies per cell (median) [1]: ++ (>=100 = ++) | Additional entities of particular interest (presentation of selected peptides across entities) [2]: HCC, UBC

245 (ALLEEEEGV; listed as Homo sapiens) [compound 245]
Copies per cell (median) [1]: + (<100 = +) | Additional entities of particular interest (presentation of selected peptides across entities) [2]: NSCLC, UBC, GBC_CCC

253 (KLLAVIHEL; listed as Homo sapiens) [compound 253]
Copies per cell (median) [1]: +++ (>=1,000 +++) | Entities of particular interest [2]: NSCLC, RCC, CRC, PC, OSCAR, OC | Additional entities of particular interest (presentation of selected peptides across entities) [2]: UBC, BRCA, GBC_CCC, MEL, AML, NHL

271: peptide found in FANCI (gene looked up) (VLIEYNFSI; listed as Homo sapiens) [compound 271]
Target coverage for source genes of selected peptides, BPHI/PCA (%) [4]: I (<19% over-expression = I) | Target coverage for source genes of selected peptides, CRC (%) [4]: III (50-69% = III) | Target coverage for source genes of selected peptides, GB (%) [4]: II (20-49% = II) | Target coverage for source genes of selected peptides, GC (%) [4]: II (20-49% = II) | Target coverage for source genes of selected peptides, HCC (%) [4]: I (<19% over-expression = I) | Target coverage for source genes of selected peptides, NSCLC (%) [4]: II (20-49% = II) | Target coverage for source genes of selected peptides, PC (%) [4]: I (<19% over-expression = I) | Target coverage for source genes of selected peptides, RCC (%) [4]: I (<19% over-expression = I) | Target coverage for source genes, AML (%) [3]: I (<19% over-expression = I) | Target coverage for source genes, BRCA (%) [3]: I (<19% over-expression = I) | Target coverage for source genes, CLL (%) [3]: I (<19% over-expression = I) | Target coverage for source genes, OSCAR (%) [3]: III (50-69% = III) | Target coverage for source genes, GBC_CCC (%) [3]: I (<19% over-expression = I) | Target coverage for source genes, MEL (%) [3]: II (20-49% = II) | Target coverage for source genes, NHL (%) [3]: I (<19% over-expression = I) | Target coverage for source genes, OC (%) [3]: I (<19% over-expression = I) | Target coverage for source genes, SCLC (%) [3]: II (20-49% = II) | Target coverage for source genes, UBC (%) [3]: I (<19% over-expression = I) | Target coverage for source genes, UTC (%) [3]: I (<19% over-expression = I) | Entities of particular interest [2]: NSCLC, OC | Additional entities of particular interest (presentation of selected peptides across entities) [2]: CLL, SCLC, MEL, AML, NHL

274 (TLYNPERTITV; listed as Homo sapiens) [compound 274]
Copies per cell (median) [1]: + (<100 = +) | Entities of particular interest [2]: NSCLC, PC, HCC

277: peptide found in HMMR (gene looked up) (KLQEELNKV; listed as Homo sapiens) [compound 277]
Target coverage for source genes of selected peptides, BPHI/PCA (%) [4]: I (<19% over-expression = I) | Target coverage for source genes of selected peptides, CRC (%) [4]: III (50-69% = III) | Target coverage for source genes of selected peptides, GB (%) [4]: I (<19% over-expression = I) | Target coverage for source genes of selected peptides, GC (%) [4]: III (50-69% = III) | Target coverage for source genes of selected peptides, HCC (%) [4]: I (<19% over-expression = I) | Target coverage for source genes of selected peptides, NSCLC (%) [4]: II (20-49% = II) | Target coverage for source genes of selected peptides, PC (%) [4]: I (<19% over-expression = I) | Target coverage for source genes of selected peptides, RCC (%) [4]: I (<19% over-expression = I) | Target coverage for source genes, AML (%) [3]: I (<19% over-expression = I) | Target coverage for source genes, BRCA (%) [3]: I (<19% over-expression = I) | Target coverage for source genes, CLL (%) [3]: I (<19% over-expression = I) | Target coverage for source genes, OSCAR (%) [3]: I (<19% over-expression = I) | Target coverage for source genes, GBC_CCC (%) [3]: I (<19% over-expression = I) | Target coverage for source genes, MEL (%) [3]: I (<19% over-expression = I) | Target coverage for source genes, NHL (%) [3]: I (<19% over-expression = I) | Target coverage for source genes, OC (%) [3]: I (<19% over-expression = I) | Target coverage for source genes, SCLC (%) [3]: I (<19% over-expression = I) | Target coverage for source genes, UBC (%) [3]: I (<19% over-expression = I) | Target coverage for source genes, UTC (%) [3]: I (<19% over-expression = I) | Entities of particular interest [2]: HCC, OC | Additional entities of particular interest (presentation of selected peptides across entities) [2]: NSCLC, OSCAR, UBC, BRCA, NHL
